Source: patent US20040142862A1, “Methods and compositions for modulating agonist-induced downregulation of G protein-coupled receptors” (The Regents of the University of California, priority 2002, published 2004)
No constants are given. Whether binding was seen depends on the method and setting. Binding seen in cells or lysates may run through a third protein. Some results given as binding are weak or reduced against the parent protein; the word gives no strength. Tags and fused reporters may be left off the sequences shown.

The chains behind the UniProt entries cited, without tags or fusion partners.
UniProt P32300: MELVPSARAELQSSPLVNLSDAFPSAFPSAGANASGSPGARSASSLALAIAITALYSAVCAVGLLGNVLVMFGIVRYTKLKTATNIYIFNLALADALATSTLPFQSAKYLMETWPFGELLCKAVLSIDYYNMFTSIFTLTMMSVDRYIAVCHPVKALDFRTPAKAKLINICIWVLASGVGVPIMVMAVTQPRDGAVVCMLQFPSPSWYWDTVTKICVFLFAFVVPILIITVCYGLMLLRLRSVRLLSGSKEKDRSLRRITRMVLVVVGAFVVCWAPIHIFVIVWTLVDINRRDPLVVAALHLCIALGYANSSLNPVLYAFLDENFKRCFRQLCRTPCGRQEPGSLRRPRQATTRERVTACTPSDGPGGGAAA

What was measured:
[1] = target: epitope (FLAG)-tagged delta opioid receptor (DOR-1), full length, stably expressed in HEK293 cells (UniProt P32300); assay: co-immunoprecipitation with DOR from cells overexpressing GFP-cGASP1
[2] = target: epitope (FLAG)-tagged delta opioid receptor (DOR-1), full length, stably expressed in HEK293 cells (UniProt P32300); assay: co-immunoprecipitation from HEK293 cell lysates
[3] = target: epitope (FLAG)-tagged delta opioid receptor (DOR-1), full length, stably expressed in HEK293 cells (UniProt P32300); assay: co-immunoprecipitation: receptor immunoprecipitated, blotted with anti-GFP

Measured: binding

B1: GFP-tagged cGASP1 stably overexpressed in HEK293 cells (protein, not shown: large carriers; small tags and cut ends)
chain: SETEEETIFGSWFWDGKEVSEEAGPCCVSKPEDDEEMIVESWFWSRDKAIKETGTVATCESKPENEEGAIVGSWFEAEDEVDNRTDNGSNCGSRTLADEDEAIVGSWFWAGDEAHFESNPSPVFRAICRSTCSVEQEPDPSRRPQSWEEVTVQFKPGPWGRVGFPSISPFRFPKEAASLFCEMFGGKPRNMVLSPEGEDQESLLQPDQPSPEFPFQYDPSYRSVQEIREHLRAKESTEPESSSCNCIQCELKIGSEEFEELLLLMEKIRDPFIHEISKIAMGMRSASQFTRDFIRDSGVVSLIETLLNYPSSRVRTSFLENMIRMAPPYPNLNIIQTYICKVCEETLAYSVDSPEQLSGIRMIRHLTTTTDYHTLVANYMSGFLSLLATGNAKTRFHVLKMLLNLSENLFMTKELLSAEAVSEFIGLFNREETNDNIQIVLAIFENIGNNIKKETVFSDDDFNIEPLISAFHKVEKFAKELQGKTDNQNDPEGDQEN
binds: all assays above
